Results are given in words; binding and its absence hold for the method and conditions named. For part of these data: Binding seen in cells or lysates may run through a third protein. Some binding calls cover weakened binding; strength is not graded here.
B1: occludin (protein, UniProt Q16625 1-522)
chain: MSSRPLESPPPYRPDEFKPNHYAPSNDIYGGEMHVRPMLSQPAYSFYPEDEILHFYKWTSPPGVIRILSMLIIVMCIAIFACVASTLAWDRGYGTSLLGGSVGYPYGGSGFGSYGSGYGYGYGYGYGYGGYTDPRAAKGFMLAMAAFCFIAALVIFVTSVIRSEMSRTRRYYLSVIIVSAILGIMVFIATIVYIMGVNPTAQSSGSLYGSQIYALCNQFYTPAATGLYVDQYLYHYCVVDPQEAIAIVLGFMIIVAFALIIFFAVKTRRKMDRYDKSNILWDKEHIYDEQPPNVEEWVKNVSAGTQDVPSPPSDYVERVDSPMAYSSNGKVNDKRFYPESSYKSTPVPEVVQELPLTSPVDDFRQPRYSSGGNFETPSKRAPAKGRAGRSKRTEQDHYETDYTTGGESCDELEEDWIREYPPITSDQQRQLYKRNFDTGLQEYKSLQSELDEINKELSRLDKELDDYREESEEYMAAADEYNRLKQVKGSADYKSKKNHCKQLKSKLSHIKKMVGDYDRQKT

By UniProt entry, the sequences of proteins in these tests, tags left out. Where a name states a change or a piece, a line headed by the entry shows the natural chain unless it says otherwise.
UniProt P0DTC4: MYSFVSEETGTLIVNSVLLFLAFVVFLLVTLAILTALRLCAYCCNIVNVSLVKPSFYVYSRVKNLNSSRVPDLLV
UniProt O60603: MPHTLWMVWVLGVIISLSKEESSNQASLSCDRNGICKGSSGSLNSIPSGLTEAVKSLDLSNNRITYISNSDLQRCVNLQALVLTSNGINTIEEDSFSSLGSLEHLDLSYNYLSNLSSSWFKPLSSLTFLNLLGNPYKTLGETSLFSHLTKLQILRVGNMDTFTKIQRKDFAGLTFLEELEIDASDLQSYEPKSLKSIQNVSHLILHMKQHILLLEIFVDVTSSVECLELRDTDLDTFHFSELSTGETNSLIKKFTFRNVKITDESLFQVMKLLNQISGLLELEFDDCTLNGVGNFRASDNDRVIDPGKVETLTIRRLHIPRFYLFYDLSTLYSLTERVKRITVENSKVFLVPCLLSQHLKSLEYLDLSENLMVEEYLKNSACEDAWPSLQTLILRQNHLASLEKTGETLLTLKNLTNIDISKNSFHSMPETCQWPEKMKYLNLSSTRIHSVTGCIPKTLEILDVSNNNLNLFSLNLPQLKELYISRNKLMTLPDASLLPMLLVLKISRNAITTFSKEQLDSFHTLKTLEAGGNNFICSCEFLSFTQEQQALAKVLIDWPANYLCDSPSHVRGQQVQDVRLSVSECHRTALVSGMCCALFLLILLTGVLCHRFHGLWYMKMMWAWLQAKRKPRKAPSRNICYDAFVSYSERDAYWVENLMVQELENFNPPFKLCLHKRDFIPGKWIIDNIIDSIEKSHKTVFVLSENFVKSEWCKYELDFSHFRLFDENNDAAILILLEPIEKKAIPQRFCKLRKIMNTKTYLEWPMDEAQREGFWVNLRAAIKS
UniProt O00206: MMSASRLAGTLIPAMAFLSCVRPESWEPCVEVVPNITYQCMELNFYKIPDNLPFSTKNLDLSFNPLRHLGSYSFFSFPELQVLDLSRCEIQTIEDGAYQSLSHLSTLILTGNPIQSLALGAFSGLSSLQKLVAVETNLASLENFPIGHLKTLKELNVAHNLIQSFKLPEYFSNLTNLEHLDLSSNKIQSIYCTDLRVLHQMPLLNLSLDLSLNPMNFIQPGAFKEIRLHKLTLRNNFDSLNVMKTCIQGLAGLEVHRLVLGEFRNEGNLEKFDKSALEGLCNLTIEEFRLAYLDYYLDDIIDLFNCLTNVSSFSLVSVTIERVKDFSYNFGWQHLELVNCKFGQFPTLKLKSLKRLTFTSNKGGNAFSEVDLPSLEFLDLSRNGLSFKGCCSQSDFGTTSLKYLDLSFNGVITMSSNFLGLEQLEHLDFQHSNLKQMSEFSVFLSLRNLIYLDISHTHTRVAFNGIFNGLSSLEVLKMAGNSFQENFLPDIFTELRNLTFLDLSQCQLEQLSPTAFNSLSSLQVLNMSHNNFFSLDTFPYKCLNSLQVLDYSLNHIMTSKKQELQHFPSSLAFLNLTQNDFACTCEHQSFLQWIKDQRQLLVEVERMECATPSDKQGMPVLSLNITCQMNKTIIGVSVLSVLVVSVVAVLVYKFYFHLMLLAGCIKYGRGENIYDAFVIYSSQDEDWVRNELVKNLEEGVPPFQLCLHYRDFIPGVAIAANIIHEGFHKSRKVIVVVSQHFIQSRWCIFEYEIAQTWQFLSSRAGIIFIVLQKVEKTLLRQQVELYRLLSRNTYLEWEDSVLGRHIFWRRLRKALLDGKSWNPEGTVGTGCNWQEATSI
UniProt O14493: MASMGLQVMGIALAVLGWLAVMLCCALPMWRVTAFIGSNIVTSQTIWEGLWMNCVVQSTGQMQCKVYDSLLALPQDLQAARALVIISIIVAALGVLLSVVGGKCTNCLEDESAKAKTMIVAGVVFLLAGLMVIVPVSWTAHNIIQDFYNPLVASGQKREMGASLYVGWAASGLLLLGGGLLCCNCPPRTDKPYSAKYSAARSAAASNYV

Columns and labels:
[1] = molecular target: GST-tagged SARS-CoV-2 E protein (SARS-CoV-2) (UniProt P0DTC4); assay: pull-down; both purified
[2] = molecular target: Recombinant SARS-CoV-2 E Protein (His-tagged, Novoprotein) (SARS-CoV-2) (UniProt P0DTC4); assay: co-IP; supernatant of airway epithelial cell lysate incubated with 10 μg His-tagged E protein and Anti-His Tag Magnetic Beads at 4 °C overnight; beads washed with ice-cold PBS; Western blotting; only the target purified

Molecule	binding [1]	binding [2]
His-tagged TLR2 recombinant protein (from UniProt O60603 21-588) (receptor)	binds	
His-tagged TLR4 recombinant protein (from UniProt O00206 24-631) (receptor)	binds	
claudin-4 (from UniProt O14493 1-209)		binds
Toll-like receptor 4 (endogenous) (from UniProt O00206 24-839)		binds
Toll-like receptor 2 (endogenous) (from UniProt O60603 21-784)		binds
B1		binds
